From publication PMC10710507 (Nature Communications, 2023)
These are yes or no findings as the source states them, for the method shown. For some assays here: Binding seen in cells or lysates may run through a third protein. Some binding calls cover weakened binding; strength is not graded here.

By UniProt entry, the sequences of proteins in these tests, tags left out.
UniProt P20789: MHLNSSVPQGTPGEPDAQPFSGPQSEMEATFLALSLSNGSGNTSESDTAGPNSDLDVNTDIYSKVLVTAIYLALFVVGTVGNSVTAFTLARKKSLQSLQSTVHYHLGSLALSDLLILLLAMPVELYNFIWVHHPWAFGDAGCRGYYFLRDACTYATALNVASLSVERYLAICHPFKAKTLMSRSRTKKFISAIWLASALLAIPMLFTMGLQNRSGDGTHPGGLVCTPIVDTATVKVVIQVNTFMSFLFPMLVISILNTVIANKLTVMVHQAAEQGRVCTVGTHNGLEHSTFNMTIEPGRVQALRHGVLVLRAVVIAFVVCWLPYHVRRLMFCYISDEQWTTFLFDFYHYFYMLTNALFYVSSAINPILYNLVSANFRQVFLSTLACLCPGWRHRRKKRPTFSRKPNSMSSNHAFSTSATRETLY
UniProt P32121: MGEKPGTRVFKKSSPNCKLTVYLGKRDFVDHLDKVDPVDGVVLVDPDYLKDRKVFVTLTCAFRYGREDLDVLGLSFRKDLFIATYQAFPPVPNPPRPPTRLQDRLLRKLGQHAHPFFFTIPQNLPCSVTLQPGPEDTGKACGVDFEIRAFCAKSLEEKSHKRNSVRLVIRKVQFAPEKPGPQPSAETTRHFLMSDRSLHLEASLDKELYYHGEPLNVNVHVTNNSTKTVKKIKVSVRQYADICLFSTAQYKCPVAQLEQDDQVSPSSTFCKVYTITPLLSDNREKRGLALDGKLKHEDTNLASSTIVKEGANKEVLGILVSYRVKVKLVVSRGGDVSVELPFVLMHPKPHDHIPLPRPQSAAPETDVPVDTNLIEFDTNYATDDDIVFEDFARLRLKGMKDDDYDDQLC

B1: Cy5-NT8-13 (peptide)
peptide: RRPYIL
modifications: Cy5 (position not given)

Key:
[1] = molecular target: HA-FLAG-wt-rNTS1-nLuc (rat) (UniProt P20789); assay: FRET or BRET; HEK293T co-transfected with HA-FLAG-wt-rNTS1-nLuc and human β-arrestin-2-Venus; BRET ratio (Venus/nLuc) over time after addition of ligand, 37 C
[2] = molecular target: wt-rNTS1 (wild-type rat neurotensin receptor 1) on HEK293F cells (rat) (UniProt P20789); assay: flow cytometry on cells; cell surface competition: 100,000 HEK293F cells stably expressing receptor, unlabelled ligand varied against 5 nM Cy5-NT8-13, 1 h at room temperature, mCherry-positive single cells, One site - Fit Ki; only the binder purified

Molecule | binding [1] | binding [2]
human β-arrestin-2-Venus (from UniProt P32121 1-409) | binds | 
B1 |  | binds
